# No constants are given. Whether binding was seen depends on the method and setting. Some entries that bind do so weakly or less than the wild type.
# By UniProt entry, the sequences of proteins in these tests, tags left out. Residues count along the entry.
# UniProt P02088, residues 2-147: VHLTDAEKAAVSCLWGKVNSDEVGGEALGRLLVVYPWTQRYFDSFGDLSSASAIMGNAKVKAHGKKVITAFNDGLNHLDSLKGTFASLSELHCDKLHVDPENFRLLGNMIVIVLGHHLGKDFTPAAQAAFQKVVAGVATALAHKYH
# UniProt P69905, residues 2-142: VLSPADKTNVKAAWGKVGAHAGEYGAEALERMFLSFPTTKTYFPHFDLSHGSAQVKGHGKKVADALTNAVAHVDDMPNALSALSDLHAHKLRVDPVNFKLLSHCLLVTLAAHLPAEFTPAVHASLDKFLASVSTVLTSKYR
# UniProt P01942, residues 2-142: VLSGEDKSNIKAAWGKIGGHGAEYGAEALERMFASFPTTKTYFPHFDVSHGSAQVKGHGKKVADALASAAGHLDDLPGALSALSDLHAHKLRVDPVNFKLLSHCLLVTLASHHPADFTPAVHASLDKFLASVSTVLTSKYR
# Molecular target: mouse β-globin polypeptide (endogenous) (mouse) (UniProt P02088)
# Experiment: nondenaturing isoelectric focusing of transgenic mouse hemolysate; band excised and its chains identified on a denaturing cellulose acetate strip
row,Substance,binding
1,human α-globin polypeptide (product of the human α1-globin transgene) (from UniProt P69905 2-142),binds
2,mouse α-globin polypeptide (endogenous) (from UniProt P01942 2-142),binds

# Source: US6613957
